Measurements as given in US20220127335A1, “TETRAMERIC PROTEIN SCAFFOLDS AS NANO-CARRIERS OF THERAPEUTIC PEPTIDES FOR TREATING CANCER AND OTHER DISEASES” (UNIVERSITY OF MARYLAND, BALTIMORE, priority 2019, published 2022).
Results are given in words; binding and its absence hold for the method and conditions named. Some entries that bind do so weakly or less than the wild type.

Key:
[1] = molecular target: Bcr/Abl-R6 (Homo sapiens (Human)) (UniProt P11274); assay: self-association into tetramer; SEC, DLS
[2] = molecular target: Bcr/Abl-R6 (Homo sapiens (Human)) (UniProt P11274); assay: self-association into tetramer; size exclusion chromatography, Superdex 75

B1: Bcr/Abl-R6 (other)
chain: MVDPVGFAEAWKAQFPDSEPPRMELRSVGDIEQELERAKASIRRLEQEVNQERFRMIYLQTLLAKEKKSYDRRRRRRR
notes: Negative control scaffold without the PMI graft: Bcr/Abl tetramerization domain with C-terminal R6; Chemically synthesized; tetramer in aqueous buffer
binding [1]: binds
binding [2]: binds
